For the assay, the target named is FhuA as in the FhuA–Llp crystals (mature part, treated with TEV protease) (E. coli) (UniProt P06971). In words: crystal structure; FhuA–Llp co-overexpressed in E. coli, TEV-treated, in C8E4; 16% PEG 4K, 0.4 M (NH4)2SO4, 0.1 M NaAc, pH 4.5, 20 °C.

Amino acid sequences for entries named in this document (tags omitted). Residues count along the entry.
UniProt P06971, residues 34-747: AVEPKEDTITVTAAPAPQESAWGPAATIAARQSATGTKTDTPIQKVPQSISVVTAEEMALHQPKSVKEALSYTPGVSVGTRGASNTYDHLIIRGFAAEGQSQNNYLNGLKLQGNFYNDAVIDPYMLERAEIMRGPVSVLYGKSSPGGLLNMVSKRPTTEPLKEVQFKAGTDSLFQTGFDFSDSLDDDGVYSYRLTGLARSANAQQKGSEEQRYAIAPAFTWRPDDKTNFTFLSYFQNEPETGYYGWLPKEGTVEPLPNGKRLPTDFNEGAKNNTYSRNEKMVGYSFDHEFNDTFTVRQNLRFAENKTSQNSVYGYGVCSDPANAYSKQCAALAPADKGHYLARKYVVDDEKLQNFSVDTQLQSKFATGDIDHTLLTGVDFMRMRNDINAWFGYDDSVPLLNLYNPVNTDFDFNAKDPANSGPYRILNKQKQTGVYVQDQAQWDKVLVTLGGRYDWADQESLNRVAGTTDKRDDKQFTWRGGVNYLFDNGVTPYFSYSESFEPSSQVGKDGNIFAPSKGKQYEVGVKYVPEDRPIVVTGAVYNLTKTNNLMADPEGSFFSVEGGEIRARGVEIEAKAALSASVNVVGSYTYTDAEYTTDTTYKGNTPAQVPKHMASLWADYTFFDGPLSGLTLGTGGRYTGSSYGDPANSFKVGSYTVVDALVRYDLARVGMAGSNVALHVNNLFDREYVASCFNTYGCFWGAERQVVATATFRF

Data on one molecule can be found in article PMC9586334 (Proceedings of the National Academy of Sciences of the …, 2022).

These are yes or no findings as the source states them, for the method shown. Some results given as binding are weak or reduced against the parent protein; the word gives no strength.

B1: Llp, superinfection exclusion lipoprotein of bacteriophage T5 (protein, UniProt Q38162 16-77)
chain: CSTFGPKDIKCEAYYMQDHVKYKANVFDRKGDMFLVSPIMAYGSFWAPVSYFTEGNTCEGVF
modifications: lipid anchor on Cys1; Cys11-Cys58 disulphide bond
B1: the binding result is on record as “binds”.
